According to PubChem BioAssay AID2384 (Southern Research Specialized Biocontainment Screening …, 2010):

Test system: S. typhi GFP reporter counter-screen, fluorescence, 4 h
Experiment: S. typhi counter-screen signal inhibition – fluorescence, 4 h, counter-screen for PhoP regulon inhibitor project, dose response (AID 2384)

CNCCCC12CCC(c3ccccc31)c1ccccc12
IC50: 53.5 µM
